Here are results for five substances from PMC3624461.

Amino acid sequences for entries named in this document (tags omitted). A change or cut given only in a name is not applied to a line headed by its entry.
UniProt Q8NBP7: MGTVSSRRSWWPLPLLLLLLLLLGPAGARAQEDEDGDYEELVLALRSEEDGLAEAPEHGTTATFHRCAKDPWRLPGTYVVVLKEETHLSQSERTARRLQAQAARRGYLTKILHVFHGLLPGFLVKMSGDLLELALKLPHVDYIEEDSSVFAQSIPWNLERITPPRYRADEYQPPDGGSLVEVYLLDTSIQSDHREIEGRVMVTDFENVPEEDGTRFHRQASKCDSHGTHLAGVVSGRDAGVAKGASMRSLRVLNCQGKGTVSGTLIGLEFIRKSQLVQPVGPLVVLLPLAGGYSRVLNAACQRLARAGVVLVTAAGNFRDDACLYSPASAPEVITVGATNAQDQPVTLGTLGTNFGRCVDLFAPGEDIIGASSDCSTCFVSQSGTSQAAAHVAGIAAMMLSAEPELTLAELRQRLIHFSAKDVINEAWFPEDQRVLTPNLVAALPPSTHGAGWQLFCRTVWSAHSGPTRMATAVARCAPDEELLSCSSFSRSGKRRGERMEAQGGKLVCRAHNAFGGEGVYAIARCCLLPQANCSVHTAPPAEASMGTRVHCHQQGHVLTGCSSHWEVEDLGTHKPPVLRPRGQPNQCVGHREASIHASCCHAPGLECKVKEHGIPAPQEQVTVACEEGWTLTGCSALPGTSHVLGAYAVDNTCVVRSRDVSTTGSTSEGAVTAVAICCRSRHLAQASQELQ
UniProt Q06481: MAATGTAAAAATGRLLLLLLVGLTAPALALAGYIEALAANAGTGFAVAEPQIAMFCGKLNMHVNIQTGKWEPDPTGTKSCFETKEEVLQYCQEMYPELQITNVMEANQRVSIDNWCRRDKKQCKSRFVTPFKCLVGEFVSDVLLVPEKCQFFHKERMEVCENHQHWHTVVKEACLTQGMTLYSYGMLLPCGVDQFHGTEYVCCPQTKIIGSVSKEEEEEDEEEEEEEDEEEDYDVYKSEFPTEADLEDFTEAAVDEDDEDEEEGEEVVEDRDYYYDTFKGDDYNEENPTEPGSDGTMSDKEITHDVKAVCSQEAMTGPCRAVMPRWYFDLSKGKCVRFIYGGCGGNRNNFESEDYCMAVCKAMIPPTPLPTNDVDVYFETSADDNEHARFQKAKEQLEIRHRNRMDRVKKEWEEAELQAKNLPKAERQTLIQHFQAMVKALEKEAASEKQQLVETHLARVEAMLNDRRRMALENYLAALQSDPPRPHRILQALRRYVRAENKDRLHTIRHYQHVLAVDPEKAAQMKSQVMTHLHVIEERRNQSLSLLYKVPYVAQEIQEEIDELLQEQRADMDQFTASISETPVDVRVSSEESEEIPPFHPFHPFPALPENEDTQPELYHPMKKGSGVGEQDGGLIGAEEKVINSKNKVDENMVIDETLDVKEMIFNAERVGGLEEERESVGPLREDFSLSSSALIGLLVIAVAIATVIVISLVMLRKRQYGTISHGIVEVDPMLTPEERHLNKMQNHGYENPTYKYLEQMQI
UniProt P05067: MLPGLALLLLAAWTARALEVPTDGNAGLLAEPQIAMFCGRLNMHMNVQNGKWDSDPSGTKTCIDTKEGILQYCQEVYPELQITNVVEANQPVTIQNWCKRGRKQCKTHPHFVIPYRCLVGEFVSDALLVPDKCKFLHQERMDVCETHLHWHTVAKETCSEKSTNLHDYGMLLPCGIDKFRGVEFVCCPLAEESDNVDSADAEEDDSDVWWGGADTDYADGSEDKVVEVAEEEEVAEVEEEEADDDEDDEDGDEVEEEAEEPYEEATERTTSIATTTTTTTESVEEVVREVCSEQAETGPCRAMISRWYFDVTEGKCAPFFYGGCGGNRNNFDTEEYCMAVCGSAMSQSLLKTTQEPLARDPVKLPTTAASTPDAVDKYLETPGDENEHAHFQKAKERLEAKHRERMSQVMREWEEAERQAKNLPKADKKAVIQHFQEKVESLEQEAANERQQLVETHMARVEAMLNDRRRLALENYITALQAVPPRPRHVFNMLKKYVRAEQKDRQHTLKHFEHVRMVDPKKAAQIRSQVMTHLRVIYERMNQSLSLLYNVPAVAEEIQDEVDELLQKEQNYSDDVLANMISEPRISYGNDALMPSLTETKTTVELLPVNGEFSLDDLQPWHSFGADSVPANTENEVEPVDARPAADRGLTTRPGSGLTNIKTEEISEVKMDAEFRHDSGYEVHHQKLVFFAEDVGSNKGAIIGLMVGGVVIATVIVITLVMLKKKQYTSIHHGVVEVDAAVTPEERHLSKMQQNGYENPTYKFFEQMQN

These are yes or no findings as the source states them, for the method shown. For some of these results: Binding calls can cover weak binding; strength is not graded here. For some of these results: In cells and extracts the contact can be indirect.

Assay [1] has as its target Proprotein convertase subtilisin/kexin type 9 (PCSK9), recombinant full-length (human) (UniProt Q8NBP7). Put plainly: ELISA; as a5 but in Dulbecco's PBS (with calcium), neutral pH; both purified. For orientation: ELISA stands for enzyme-linked immunosorbent assay.
For assay [2] the target is unchanged. Put plainly: co-IP; purified recombinant proteins, 3 μg/ml each, mixed at pH 6.0 in IP buffer; J16- or IC-coated protein A Dynabeads, 30 min; eluted by boiling; Western blot; both purified. In general terms: Immunoblotting shows a protein as a band on a membrane.
The target is the same in assay [3]. Put plainly: ELISA; plate coated with 5 μg/ml PCSK9; 4 μg/ml APLP2 for 2 h in ELISA buffer (150 mM NaCl, 20 mM CaCl2, 20 mM MES, pH 5.0, 5.5, 6.0 or 6.5); fixed; detected with anti-APLP2; both purified.
For assay [4] the target is unchanged. In words: co-IP; as a3 but at pH 7.4; only the target purified.
The target is the same in assay [5]. In words: co-IP; PCSK9 premixed with J16 (or IC) added to HepG2 lysate, IP buffer pH 6.0, protein A beads, eluted by boiling, Western blot; only the target purified.
Assay [6] concerns the target APLP2-extracellular domain (ECD) (amino acids 1–692) (human) (UniProt Q06481). In words: ELISA; plate coated with 4 μg/ml APLP2; 4 μg/ml PCSK9 premixed with 12 μg/ml IC, J16 or 5F6 and LDLR-ECD in pH 6.0 buffer; detected with anti-LDLR; both purified.
For assay [7] the target is unchanged. Put plainly: ELISA; plate coated with 4 μg/ml APLP2; increasing concentrations of PCSK9 premixed with 2.5 μg/ml LDLR-ECD; pH 6.0 buffer; detected with anti-LDLR; both purified.

In the case of “APLP2-extracellular domain (ECD) (amino acids 1–692) (from UniProt Q06481 32-692) (domain or fragment)”, the binding result in assay [1] was “no binding (only at neutral pH; 4 μg/ml APLP2)”; in assay [2], “binds”; in assay [3], “binds”.
Take “Amyloid precursor protein (APP)-ECD (amino acids 1–699) (from UniProt P05067 18-699) (domain or fragment)”: the binding result in assay [2] is “binds”.
Take “Amyloid β A4 protein (APP), endogenous (from UniProt P05067 18-770)”: the binding entry in assay [4] was “no binding (only at pH 7.4)”; in assay [5], “binds”.
The corresponding values for “Amyloid-like protein 2 (APLP2), endogenous (from UniProt Q06481 32-763)” are “no binding (only at pH 7.4)” and “binds”.
On to “Proprotein convertase subtilisin/kexin type 9 (PCSK9), recombinant full-length (from UniProt Q8NBP7)”, for which the binding result in assay [6] and in assay [7] was “binds” in each case.
